# The other results are listed elsewhere or left out.
# B1: ERGIC1-EDTA (Homo sapiens), Q969X5 (protein)
# chain: MKFLVNVALVFMVVYISYIYAAAHMHHHHHHDYDIPTTENLYFQGSEVVNELYVDDPDKDSGGKIDVSLNISLPNLHCELVGLDIQDEMGRHEVGHIDNSMKIPLNNGAGCRFEGQFSINKVPGNFHVSTHSATAQPQNPDMTHVIHKLSFGDTLQVQNIHGAFNALGGADRLTSNPLASHDYILKIVPTVYEDKSGKQRYSYQYTVANKEYVAYSHTGRIIPAIWFRYDLSPITVKYTE
# Assays:
# Assay in all cases: glycan array binding signal (z-score within array); higher = stronger binding
# Conditions in all cases: glycan notation: IUPAC condensed, linker removed
# [1] = target: Gal(b1-3)GlcNAc(b1-2)Man(a1-3)[Gal(b1-3)GlcNAc(b1-2)Man(a1-6)]Man(b1-4)GlcNAc(b1-4)GlcNAc
# Summary of the method: (§1)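 Columns mapping to the same glycan were averaged after glycan names were converted to IUPAC-condensed notation. The data come from 3228 arrays in the Consortium for Functional Glycomics database, limited to those with an available protein sequence. Binding is reported as a within-array Z-score averaged across arrays of one protein sequence and across linkers.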
# [2] = target: Gal(b1-3)GlcNAc(b1-2)Man(a1-3)[Gal(b1-3)GlcNAc(b1-2)Man(a1-6)]Man(b1-4)GlcNAc(b1-4)[Fuc(a1-6)]GlcNAc
# Summary of the method: as §1
# [3] = target: Gal(b1-3)GlcNAc(b1-2)Man(a1-3)[GlcNAc(b1-4)][Gal(b1-3)GlcNAc(b1-2)Man(a1-6)]Man(b1-4)GlcNAc(b1-4)GlcNAc
# Summary of the method: as §1
# [4] = target: Gal(b1-3)GlcNAc(b1-2)[Gal(b1-3)GlcNAc(b1-6)]Man(a1-6)[Gal(b1-3)GlcNAc(b1-2)Man(a1-3)]Man(b1-4)GlcNAc(b1-4)GlcNAc
# Summary of the method: as §1
# [5] = target: Gal(b1-3)GlcNAc(b1-3)Gal(b1-3)GlcNAc
# Summary of the method: as §1
# [6] = target: Gal(b1-3)GlcNAc(b1-3)Gal(b1-4)Glc
# Summary of the method: as §1
# [7] = target: Gal(b1-3)GlcNAc(b1-3)Gal(b1-4)GlcNAc
# Summary of the method: as §1
# [8] = target: Gal(b1-3)GlcNAc(b1-3)Gal(b1-4)GlcNAc(b1-2)Man(a1-3)[Gal(b1-3)GlcNAc(b1-3)Gal(b1-4)GlcNAc(b1-2)Man(a1-6)]Man(b1-4)GlcNAc(b1-4)GlcNAc
# Summary of the method: as §1
# [9] = target: Gal(b1-3)GlcNAc(b1-3)Gal(b1-4)GlcNAc(b1-2)[Gal(b1-3)GlcNAc(b1-3)Gal(b1-4)GlcNAc(b1-6)]Man(a1-6)[Gal(b1-3)GlcNAc(b1-3)Gal(b1-4)GlcNAc(b1-2)Man(a1-3)]Man(b1-4)GlcNAc(b1-4)[Fuc(a1-6)]GlcNAc
# Summary of the method: as §1
# [10] = target: Gal(b1-3)GlcNAc(b1-3)Gal(b1-4)GlcNAc(b1-3)Gal(b1-4)GlcNAc(b1-2)[Gal(b1-3)GlcNAc(b1-3)Gal(b1-4)GlcNAc(b1-3)Gal(b1-4)GlcNAc(b1-6)]Man(a1-6)[Gal(b1-3)GlcNAc(b1-3)Gal(b1-4)GlcNAc(b1-3)Gal(b1-4)GlcNAc(b1-2)Man(a1-3)]Man(b1-4)GlcNAc(b1-4)[Fuc(a1-6)]GlcNAc
# Summary of the method: as §1
# [11] = target: Gal(b1-3)GlcNAc(b1-3)Gal(b1-4)GlcNAc(b1-6)[Gal(b1-3)GlcNAc(b1-3)]Gal(b1-4)Glc
# Summary of the method: as §1
# [12] = target: Gal(b1-3)GlcNAc(b1-3)Gal(b1-4)[Fuc(a1-3)]GlcNAc
# Summary of the method: as §1
# [13] = target: Gal(b1-3)GlcNAc(b1-3)Gal(b1-4)[Fuc(a1-3)]GlcNAc(b1-6)[Gal(b1-3)GlcNAc(b1-3)]Gal(b1-4)Glc
# Summary of the method: as §1
# [14] = target: Gal(b1-3)GlcNAc(b1-3)GalNAc
# Summary of the method: as §1
# [15] = target: Gal(b1-3)GlcNAc(b1-6)Gal(b1-4)GlcNAc
# Summary of the method: as §1
# [16] = target: Gal(b1-3)GlcNAc(b1-6)GalNAc
# Summary of the method: as §1
# [17] = target: Gal(b1-3)GlcNAc(b1-6)[Gal(b1-3)]GalNAc
# Summary of the method: as §1
# [18] = target: Gal(b1-3)GlcNAc6S
# Summary of the method: as §1
# [19] = target: Gal(b1-3)[Fuc(a1-4)]GlcNAc
# Summary of the method: as §1
# [20] = target: Gal(b1-3)[Fuc(a1-4)]GlcNAc(b1-2)Man
# Summary of the method: as §1
# [21] = target: Gal(b1-3)[Fuc(a1-4)]GlcNAc(b1-2)Man(a1-3)[Gal(b1-3)[Fuc(a1-4)]GlcNAc(b1-2)Man(a1-6)]Man(b1-4)GlcNAc(b1-4)[Fuc(a1-6)]GlcNAc
# Summary of the method: as §1
# [22] = target: Gal(b1-3)[Fuc(a1-4)]GlcNAc(b1-3)Gal(b1-3)[Fuc(a1-4)]GlcNAc
# Summary of the method: as §1
# [23] = target: Gal(b1-3)[Fuc(a1-4)]GlcNAc(b1-3)Gal(b1-4)[Fuc(a1-3)]GlcNAc
# Summary of the method: as §1
# [24] = target: Gal(b1-3)[Fuc(a1-4)]GlcNAc(b1-6)GalNAc
# Summary of the method: as §1
# [25] = target: Gal(b1-3)[GlcNAc(b1-6)]GalNAc
# Summary of the method: as §1
# [26] = target: Gal(b1-3)[Neu5Ac(a2-6)]GalNAc
# Summary of the method: as §1
# [27] = target: Gal(b1-3)[Neu5Ac(a2-6)]GlcNAc(b1-4)Gal(b1-4)Glc
# Summary of the method: as §1
# [28] = target: Gal(b1-3)[Neu5Ac(b2-6)]GalNAc
# Summary of the method: as §1
# [29] = target: Gal(b1-4)Gal
# Summary of the method: as §1
# [30] = target: Gal(b1-4)GalNAc(a1-3)[Fuc(a1-2)]Gal(b1-4)GlcNAc
# Summary of the method: as §1
# [31] = target: Gal(b1-4)GalNAc(b1-3)[Fuc(a1-2)]Gal(b1-4)GlcNAc
# Summary of the method: as §1
# [32] = target: Gal(b1-4)Glc
# Summary of the method: as §1
# [33] = target: Gal(b1-4)Glc6S
# Summary of the method: as §1
# [34] = target: Gal(b1-4)GlcNAc
# Summary of the method: as §1
# [35] = target: Gal(b1-4)GlcNAc(a1-6)Gal(b1-4)GlcNAc
# Summary of the method: as §1
# [36] = target: Gal(b1-4)GlcNAc(b1-2)Man
# Summary of the method: as §1
# [37] = target: Gal(b1-4)GlcNAc(b1-2)Man(a1-3)Man(b1-4)GlcNAc(b1-4)GlcNAc
# Summary of the method: as §1
# [38] = target: Gal(b1-4)GlcNAc(b1-2)Man(a1-3)[Gal(b1-4)GlcNAc(b1-2)Man(a1-6)]Man(b1-4)GlcNAc(b1-4)GlcNAc
# Summary of the method: as §1
# [39] = target: Gal(b1-4)GlcNAc(b1-2)Man(a1-3)[Gal(b1-4)GlcNAc(b1-2)Man(a1-6)]Man(b1-4)GlcNAc(b1-4)[Fuc(a1-6)]GlcNAc
# Summary of the method: as §1
# [40] = target: Gal(b1-4)GlcNAc(b1-2)Man(a1-3)[Gal(b1-4)GlcNAc(b1-2)Man(a1-6)][Gal(b1-4)GlcNAc(b1-4)]Man(b1-4)GlcNAc(b1-4)[Fuc(a1-6)]GlcNAc
# Summary of the method: as §1
# [41] = target: Gal(b1-4)GlcNAc(b1-2)Man(a1-3)[Gal(b1-4)GlcNAc(b1-2)Man(a1-6)][GlcNAc(b1-4)]Man(b1-4)GlcNAc(b1-4)[Fuc(a1-6)]GlcNAc
# Summary of the method: as §1
# [42] = target: Gal(b1-4)GlcNAc(b1-2)Man(a1-3)[GlcNAc(b1-2)Man(a1-6)]Man(b1-4)GlcNAc(b1-4)GlcNAc
# Summary of the method: as §1
# [43] = target: Gal(b1-4)GlcNAc(b1-2)Man(a1-3)[GlcNAc(b1-4)][Gal(b1-4)GlcNAc(b1-2)Man(a1-6)]Man(b1-4)GlcNAc(b1-4)GlcNAc
# Summary of the method: as §1
# [44] = target: Gal(b1-4)GlcNAc(b1-2)Man(a1-3)[Man(a1-6)]Man(b1-4)GlcNAc(b1-4)GlcNAc
# Summary of the method: as §1
# [45] = target: Gal(b1-4)GlcNAc(b1-2)Man(a1-6)Man(b1-4)GlcNAc(b1-4)GlcNAc
# Summary of the method: as §1
binder,measurement,setting,value
B1,glycan array binding signal (z-score),[1],1.57
same,glycan array binding signal (z-score),[2],1.25
same,glycan array binding signal (z-score),[3],0.096
same,glycan array binding signal (z-score),[4],3.15
same,glycan array binding signal (z-score),[5],-0.44
same,glycan array binding signal (z-score),[6],0.094
same,glycan array binding signal (z-score),[7],-0.813
same,glycan array binding signal (z-score),[8],-0.057
same,glycan array binding signal (z-score),[9],0.834
same,glycan array binding signal (z-score),[10],0.835
same,glycan array binding signal (z-score),[11],0.878
same,glycan array binding signal (z-score),[12],-0.7
same,glycan array binding signal (z-score),[13],-0.512
same,glycan array binding signal (z-score),[14],-0.22
same,glycan array binding signal (z-score),[15],-0.802
same,glycan array binding signal (z-score),[16],-0.687
same,glycan array binding signal (z-score),[17],-0.358
same,glycan array binding signal (z-score),[18],0.367
same,glycan array binding signal (z-score),[19],-0.367
same,glycan array binding signal (z-score),[20],1.04
same,glycan array binding signal (z-score),[21],0.607
same,glycan array binding signal (z-score),[22],0.552
same,glycan array binding signal (z-score),[23],0.672
same,glycan array binding signal (z-score),[24],-0.044
same,glycan array binding signal (z-score),[25],0.063
same,glycan array binding signal (z-score),[26],-0.153
same,glycan array binding signal (z-score),[27],-0.363
same,glycan array binding signal (z-score),[28],0.033
same,glycan array binding signal (z-score),[29],-0.987
same,glycan array binding signal (z-score),[30],-0.441
same,glycan array binding signal (z-score),[31],-1.57
same,glycan array binding signal (z-score),[32],-0.014
same,glycan array binding signal (z-score),[33],-0.759
same,glycan array binding signal (z-score),[34],0.108
same,glycan array binding signal (z-score),[35],-0.984
same,glycan array binding signal (z-score),[36],0.343
same,glycan array binding signal (z-score),[37],-0.093
same,glycan array binding signal (z-score),[38],1.31
same,glycan array binding signal (z-score),[39],0.214
same,glycan array binding signal (z-score),[40],-0.361
same,glycan array binding signal (z-score),[41],-0.444
same,glycan array binding signal (z-score),[42],-0.981
same,glycan array binding signal (z-score),[43],-0.567
same,glycan array binding signal (z-score),[44],0.243
same,glycan array binding signal (z-score),[45],0.227

# Pulled one by one from the entries so far, three records:
binder,measurement,setting,value
B1,glycan array binding signal (z-score),[35],-0.984
same,glycan array binding signal (z-score),[26],-0.153
same,glycan array binding signal (z-score),[10],0.835

# — the supplement of paper PMC8728848
